Experimental data: PubChem BioAssay AID1259308 (NCATS, 2017)

- Aim: 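Genes whose loss raises luciferase production in HEK293 cells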 (primary screen)
- Cells: human HEK293 embryonic kidney cells stably expressing firefly luciferase (HEK-CMV-Luc2-Hygro)
- Reagents: single siRNA against human genes, 0.8 pmol siRNA per well
- Time to read-out: 72 h
- Measured: 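Reporter luminescence and viable-cell signal on separate replicate plates, given as percent of non-targeting control and median/MAD z-scores, plus per-cell luciferase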
- Reading the numbers: total luciferase, z-score: higher = more reporter protein produced
- Hit rule: 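An siRNA counts as active if its total luciferase robust z-score exceeds 3; genes with two or more such siRNAs out of three were retested with fresh siRNAs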
- Meaning of the calls: active = raised luciferase; inactive = no rise
This is an unselected part of about 59,000 deposited reagents. Of all reagents, about 1,510 (2.6%) were called active. 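Calls use total luciferase alone and ignore viability, so some active siRNAs may act by altering cell number.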 Reagents against one gene are numbered here. Not all columns of the deposit are shown.

For TMEM74 #1, how do the results read?
total luciferase, z-score: 2.08; activity call: inactive

How did the screen score TMEM74 #2?
total luciferase, z-score: -0.547; activity call: inactive

What did the screen give for TMEM74 #3?
total luciferase, z-score: -0.534; activity call: inactive

What did the screen give for RRP9 #1?
total luciferase, z-score: -1.76; activity call: inactive

For RRP9 #2, what was measured?
total luciferase, z-score: -0.942; activity call: inactive

With RRP9 #3, what was measured?
total luciferase, z-score: -0.905; activity call: inactive

For CAPZA2 #1, what was measured?
total luciferase, z-score: -1; activity call: inactive

With CAPZA2 #2, what was measured?
total luciferase, z-score: -1.06; activity call: inactive

What did the screen give for CAPZA2 #3?
total luciferase, z-score: -0.484; activity call: inactive

For THAP3 #1, how do the results read?
total luciferase, z-score: -1.38; activity call: inactive

With THAP3 #2, how do the results read?
total luciferase, z-score: 0.624; activity call: inactive

What did the screen give for THAP3 #3?
total luciferase, z-score: -0.95; activity call: inactive

2 entries from above, set out differently:
target	siRNA no.	total luciferase, z-score	activity call
RRP9	2	-0.942	inactive
RRP9	3	-0.905	inactive
